From patent US20200368315A1, “ANTIMICROBIAL PEPTIDES AND ADMIXTURES THEREOF SHOWING ANTIMICROBIAL ACTIVITY AGAINST GRAM-NEGATIVE PATHOGENS” (priority 2017, published 2020)
“And” between values parts separate entries of the source, which are not always exact repeats. Identical values can stand only once. Like-named read-outs stand apart in the source and are kept apart here. At least one peptide structure holds a part that was inferred or is arguable (an end, a ring closure or a residue). Some of these results come from one statement about several compounds together. No end group written: not given here.

Key:
A. baumannii LMG01041 [1] = assay type: cell-based, Acinetobacter baumannii; conditions: for MIC value: alone
Method: (§1) Escherichia coli, Klebsiella pneumoniae, Pseudomonas aeruginosa, Acinetobacter baumannii, Enterobacter aerogenes were grown in Luria-Bertani (LB) broth shaken (200 rpm) or on LB agar at 37° C. […] MICs tests were performed in duplicate by a liquid growth inhibition microdilution assays in sterilized polypropylene microtiter plates according to Wiegand and […] [27]. […] The suspension was diluted in a ratio of 1:100 using Mueller Hinton Broth (MHB) and the final inoculum is 5*10^5 CFU/mL. […] The antimicrobials were diluted serially by 1/2 one by one and 50 uL diluted bacterial suspension were added to each well to make the final volume to be 100 uL. Growth control was accomplished by remove 10 uL from well 11 and dilute 1000 times to plate 1/10 suspension on the solid medium. […] The number of colonies on the control agar plate should be around 50 to ensure the concentration of the inoculum and the effectiveness of the experiment. The lowest concentration of the antimicrobials that inhibits visible growth of the indicator is identified as MIC.

E. aerogenes LMG 02094 [2] = tested on: E. aerogenes LMG 02094
Method: (§2) The test of synergistic effect was processed by conducting standard chequerboard broth microdilution assays. […] Row 11 are used as growth control with no peptide was included, while row 12 with MHB medium-only wells was included as a sterility control as referred before. 50 uL fresh bacterial suspension was added to well 1-11 and final volume of each well on the plate is 100 uL.
(§3) The test of synergistic effect was processed as method 1.4.
(§4) To determine whether the combination therapy is additive, synergistic or antagonistic, fractional inhibitory concentration (FIC) indices were calculated. FICI=FICa+FICb=MICac/MICa+MICbc/MICb. The MICa/MICb is the MIC of compound A/B alone. MICac is the MIC of compound A in combination with compound B and MICbc is the MIC of compound B when it was combination with compound A. […]. FICa is FIC of compound A while FICb is FIC of compound B. The FICI is interpreted as follows: synergistic, FICI≤0.5; additive, 0.5<FICI<1; indifferent, 1<FICI<2; antagonistic, FICI>2.

A. baumannii LMG01041 [3] = tested on: A. baumannii LMG01041
Method: as §2, §3, §4

P. aeruginosa LMG 6395 [4] = tested on: P. aeruginosa LMG 6395
Method: as §2, §3, §4

K. pneumoniae LMG20218 [5] = tested on: K. pneumoniae LMG20218
Method: as §2, §3, §4

E. coli LMG15862 [6] = tested on: E. coli LMG15862
Method: as §2, §3, §4

P. aeruginosa LMG 6395 [7] = assay type: cell-based, Pseudomonas aeruginosa
Method: as §1

K. pneumoniae LMG20218 [8] = assay type: cell-based, Klebsiella pneumoniae; conditions: for MIC value: alone
Method: as §1

P. aeruginosa LMG 6395 [9] = assay type: cell-based, Pseudomonas aeruginosa; remark: listed apart in the source
Description: (§5) The test of synergistic effect was processed by conducting standard chequerboard broth microdilution assays. Nisin (Drug X) was loaded two fold serially diluted from row 1 to 10 in X-axis while GNPs (Drug Y) were loaded in eight two fold serially diluted concentrations from line A to H in Y-axis (FIG. 1). The original concentrations of peptides were MICs of each. Row 11 are used as growth control with no peptide was included, while row 12 with MHB medium-only wells was included as a sterility control as referred before. 50 uL fresh bacterial suspension was added to well 1-11 and final volume of each well on the plate is 100 uL.
as §4

E. aerogenes LMG 02094 [10] = assay type: cell-based, Enterobacter aerogenes; conditions: for MIC value: alone
Method: as §1

E. coli LMG15862 [11] = assay type: cell-based, Escherichia coli
Method: as §1

A. baumannii LMG01041 [12] = assay type: cell-based, Acinetobacter baumannii
Description: as §5, §4

E. aerogenes LMG 02094 [13] = assay type: cell-based, Enterobacter aerogenes
Description: as §5, §4

K. pneumoniae LMG20218 [14] = assay type: cell-based, Klebsiella pneumoniae
Description: as §5, §4

E. coli LMG15862 [15] = assay type: cell-based, Escherichia coli; remark: listed apart in the source
Description: as §5, §4

[16] = MIC of GNP in combination with vancomycin at the MICac concentration
[17] = MIC of vancomycin in combination with the GNP at the MICbc concentration
[18] = MIC of GNP when used with the MICac concentration of nisin
[19] = MIC of nisin in combination with the GNP at the MICbc concentration

CC[C@@H](C)[C@@H](NC(=O)[C@H](N)CCCNC(=N)N)C(=O)N[C@@H](C(=O)N[C@H](CCC(N)=O)C(=O)N[C@H](CCCNC(=N)N)C(=O)N[C@@H](C(=O)N[C@H](CCCCN)C(=O)N[C@H](CCCCN)C(=O)N[C@H](Cc1c[nH]c2ccccc12)C(=O)N[C@H](CC(C)C)C(=O)N[C@H](CCCNC(=N)N)C(N)=O)[C@H](C)CC)C(C)C [GNP-D8]
MIC value of antimicrobial compounds alone (A. baumannii LMG01041 [1]): 8 µM
MICb (MIC of GNP alone) (A. baumannii LMG01041 [1]; D form GNP, Table 9): 8 µM
MICb (E. aerogenes LMG 02094 [2]; MIC of GNP alone): 32 µM
MICbc (E. aerogenes LMG 02094 [2]; [16]): 4 µM
MICac (E. aerogenes LMG 02094 [2]; [17]): 12 µM and 6 µM
MICb (A. baumannii LMG01041 [3]; MIC of GNP alone): 8 µM
MICbc (A. baumannii LMG01041 [3]; [16]): 0.5 µM and 1 µM
MICac (A. baumannii LMG01041 [3]; [17]): 4 µM and 2 µM
MICb (P. aeruginosa LMG 6395 [4]; MIC of GNP alone): 16 µM
MICbc (P. aeruginosa LMG 6395 [4]; [16]): 2 µM and 1 µM
MICac (P. aeruginosa LMG 6395 [4]; [17]): 8 µM and 16 µM
MICb (K. pneumoniae LMG20218 [5]; MIC of GNP alone): 32 µM
MICbc (K. pneumoniae LMG20218 [5]; [16]): 1 µM
MICac (K. pneumoniae LMG20218 [5]; [17]): 8 µM and 4 µM
MICb (E. coli LMG15862 [6]; MIC of GNP alone): 4 µM
MICbc (E. coli LMG15862 [6]; [16]): 0.125 µM and 0.25 µM
MICac (E. coli LMG15862 [6]; [17]): 4 µM and 2 µM
MIC value of antimicrobial compounds alone (P. aeruginosa LMG 6395 [7]): 16 µM
MICb (MIC of GNP alone) (P. aeruginosa LMG 6395 [7]; D form GNP, Table 9): 16 µM
MIC value of antimicrobial compounds alone (K. pneumoniae LMG20218 [8]): 32 µM
MICb (MIC of GNP alone) (K. pneumoniae LMG20218 [8]; D form GNP, Table 9): 32 µM
MICb (P. aeruginosa LMG 6395 [9]; MIC of GNP alone): 16 µM
MICbc (P. aeruginosa LMG 6395 [9]; [18]): 0.5 µM
MICac (P. aeruginosa LMG 6395 [9]; [19]): 4.5 µM
MIC value of antimicrobial compounds alone (E. aerogenes LMG 02094 [10]): 32 µM
MICb (MIC of GNP alone) (E. aerogenes LMG 02094 [10]; D form GNP, Table 9): 32 µM
MIC value of antimicrobial compounds alone (E. coli LMG15862 [11]): 4 µM
MICb (MIC of GNP alone) (E. coli LMG15862 [11]; D form GNP, Table 9): 4 µM
MICb (A. baumannii LMG01041 [12]; MIC of GNP alone): 8 µM
MICbc (A. baumannii LMG01041 [12]; [18]): 0.5 µM
MICac (A. baumannii LMG01041 [12]; [19]): 0.19 µM
MICb (E. aerogenes LMG 02094 [13]; MIC of GNP alone): 32 µM
MICbc (E. aerogenes LMG 02094 [13]; [18]): 2 µM
MICac (E. aerogenes LMG 02094 [13]; [19]): 2 µM
MICb (K. pneumoniae LMG20218 [14]; MIC of GNP alone): 32 µM
MICbc (K. pneumoniae LMG20218 [14]; [18]): 2 µM
MICac (K. pneumoniae LMG20218 [14]; [19]): 0.75 µM
MICb (E. coli LMG15862 [15]; MIC of GNP alone): 4 µM
MICbc (E. coli LMG15862 [15]; [18]): 1 µM
MICac (E. coli LMG15862 [15]; [19]): 1.5 µM

RIKRRIKKWLR-NH2 [GNP8-5]
MIC value (A. baumannii LMG01041 [1]): above 256 μM
MIC value (K. pneumoniae LMG20218 [8]): above 256 μM
MIC value (E. aerogenes LMG 02094 [10]): above 256 μM

RIRKRIKKWLR-NH2 [GNP8-4]
MIC value (A. baumannii LMG01041 [1]): above 256 μM
MIC value (K. pneumoniae LMG20218 [8]): above 256 μM
MIC value (E. aerogenes LMG 02094 [10]): above 256 μM

RIVQRIKKWR-NH2 [GNP8-6]
MIC value (A. baumannii LMG01041 [1]): above 256 μM
MIC value (K. pneumoniae LMG20218 [8]): above 256 μM
MIC value (E. aerogenes LMG 02094 [10]): above 256 μM
